Assay results: patent US20040029185
For some of these results: Results from cells or extracts need not show a direct contact. For some of these results: No signal at the amounts used counts as a negative. Protein sequences can lack the tags named with them.

How the values were obtained:
[1] = biological target: T1, TBX2 (Homo sapiens) (UniProt Q13207); assay: competition with a labelled probe; details: cold oligo competes the SEQ ID NO: 4 shift; protein in a lysate after overexpression
T1 sequence (looked up): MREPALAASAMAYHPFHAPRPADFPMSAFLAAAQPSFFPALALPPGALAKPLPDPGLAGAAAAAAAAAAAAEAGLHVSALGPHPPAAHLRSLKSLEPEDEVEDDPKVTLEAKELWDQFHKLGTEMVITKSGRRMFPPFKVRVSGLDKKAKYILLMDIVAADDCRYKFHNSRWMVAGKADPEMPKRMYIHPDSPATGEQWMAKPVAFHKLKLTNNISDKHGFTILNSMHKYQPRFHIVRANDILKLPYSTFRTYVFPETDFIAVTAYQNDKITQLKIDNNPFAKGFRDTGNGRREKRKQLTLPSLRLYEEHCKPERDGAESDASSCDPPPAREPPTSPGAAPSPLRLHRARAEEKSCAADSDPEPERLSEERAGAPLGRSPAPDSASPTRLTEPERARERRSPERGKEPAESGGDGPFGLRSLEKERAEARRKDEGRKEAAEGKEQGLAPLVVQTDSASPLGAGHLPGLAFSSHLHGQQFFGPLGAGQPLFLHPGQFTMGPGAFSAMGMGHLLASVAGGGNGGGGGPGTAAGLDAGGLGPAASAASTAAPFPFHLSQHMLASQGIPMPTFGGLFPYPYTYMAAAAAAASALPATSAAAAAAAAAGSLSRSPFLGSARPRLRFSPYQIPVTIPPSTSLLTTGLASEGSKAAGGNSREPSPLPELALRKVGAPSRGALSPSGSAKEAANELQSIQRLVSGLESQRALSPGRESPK

[2] = biological target: T1, TBX2 (Homo sapiens); assay: EMSA; details: protein in a lysate after overexpression, label: 32P
[3] = biological target: T2, TBX2 (transfected) (Homo sapiens) (UniProt Q13207); assay: activity in cells; details: strong dose-dependent repression of reporter in Cos-7; protein in cells
T2 sequence (looked up): T1 sequence (looked up)

CAGTTAAGGGGGCAGGAGTGGCGCTGCTCACCTCTGGTGCCAAAGGGCGG (double strand) [ARF promoter 50-mer]
binding result [1]: binds

CTGCTCACCTCTGGTGCCAAA (double strand) [ARF promoter T-site-like oligo]
binding result ([2]; supershifted by anti-TBX2 antibodies, competed by cold oligo): binds

CTGCTTGACTCTAAGTCCAAA (double strand) [mutant ARF T-site oligo]
binding result ([2]; no shift or supershift with labeled mutant, no competition as cold oligo, variant of ARF promoter T-site-like oligo): no binding

TCTGCAGTTAAGGGGGCAGGAGTGGCGCTGCTCACCTCTGGTGCCAAAGGGCGGCGCAGCGGCTGCCGAGCTC (double strand) [human ARF promoter -19 to +54 (CAT reporter)]
activity on this sequence [3]: active
